The list shows only some results of the screen, not a fair sample: it is rich in T/C values a quarter to a half above the control, in often repeated tests (any T/C) and in doses without a T/C. Further doses and runs are listed elsewhere. T/C: endpoint of the treated group in % of that of the vehicle group. Some entries give survivors of the animals treated and no T/C: the source holds a T/C of zero for them, seemingly a mark for toxic or unscored doses. Some doses without a T/C left all or most animals alive at the check, yet need not have been tolerated: the source hardly ever lists a survival T/C far under the control, and the zero likely stands for such cases as well. Counts of survivors are from the toxicity check (mostly the fifth day) where no day follows; animals may have died later. Schedules are NCI's codes, taken here to give the interval after Q, in days (D) or hours (H), and the number of doses after X. Some schedules carry Z or #; the key to these is not given. Where survival is the endpoint, this PubChem deposit counts one and a half times the control or more as active, and values a quarter to a half above the control carry no call in these data; other NCI protocols may use other cut-offs. Some doses were run more than once; the values are given in rising order.
Test system: L1210 leukemia ip in BDF1 mice, survival T/C
Experiment: NCI In Vivo Anticancer Drug Screen. Data for tumor model L1210 Leukemia (intraperitoneal) in B6D2F1 (BDF1) mice
Settings: T/C endpoint: mean survival time, higher T/C = longer survival
[1] = dose: 400.0 mg/kg/injection, schedule: Q01DX001 (ip), vehicle: carboxymethylcellulose (CMC)
[2] = dose: 400.0 mg/kg/injection, schedule: Q04DX002 (ip), vehicle: Klucel (hydroxypropylcellulose) (HPC)
[3] = dose: 400.0 mg/kg/injection, schedule: Q01DX001 (ip), vehicle: saline
[4] = dose: 400.0 mg/kg/injection, schedule: Q01DX009 (ip), vehicle: saline with Tween-80
[5] = dose: 200.0 mg/kg/injection, schedule: Q04DX003 (ip), vehicle: saline with Tween-80
[6] = dose: 400.0 mg/kg/injection, schedule: Q04DX003 (ip), vehicle: saline with Tween-80
[7] = dose: 100.0 mg/kg/injection, schedule: Q01DX001 (ip), vehicle: carboxymethylcellulose (CMC)
[8] = dose: 400.0 mg/kg/injection, schedule: Q01DX009 (ip), vehicle: Klucel (hydroxypropylcellulose) (HPC)
[9] = dose: 400.0 mg/kg/injection, schedule: Q01DX009 (ip), vehicle: saline

`CC(C)(C)C1COP(=O)(Oc2ccccc2)OC1` (configuration not stated) was tested, and the survivor count [1] was 0 of 6.
`COc1ccc(C(=O)N/N=C/c2cccc(OC)c2OC)cc1` was tested, and the T/C [2] was 129 and 130 % of control and the survivor count (dose: 800.0 mg/kg/injection, schedule: Q04DX002 (ip), vehicle: Klucel (hydroxypropylcellulose) (HPC)) was 2 of 6.
With `N#C/C(=C\c1c[nH]c2ccccc12)c1ccc([N+](=O)[O-])cc1` the survivor count (dose: 400.0 mg/kg/injection, schedule: Q04DX002 (ip), vehicle: gum acacia) was 1 of 3.
With `COc1ccccc1OCCOCCNC1CC2CCC1(C)C2(C)C` (configuration not stated) the survivor count (dose: 200.0 mg/kg/injection, schedule: Q04DX003 (ip), vehicle: Klucel (hydroxypropylcellulose) (HPC)) was 0 of 6 and the survivor count (dose: 400.0 mg/kg/injection, schedule: Q04DX003 (ip), vehicle: Klucel (hydroxypropylcellulose) (HPC)) was 0 of 6.
For `O=[N+]([O-])c1ccc(O)c(/C=N/Nc2c3ccccc3nc3ccccc23)c1`, the survivor count (dose: 100.0 mg/kg/injection, schedule: Q01DX001 (ip), vehicle: saline) was 4 of 4, the survivor count (dose: 200.0 mg/kg/injection, schedule: Q01DX001 (ip), vehicle: saline) was 4 of 4 and the survivor count [3] was 3 of 4.
In the case of `Nc1ccc(OCCCOc2ccccc2)cc1`, the survivor count [4] is reported as 1 of 6.
In the case of `CNCCc1cc2c(c(OC)c1/C=C/C(=O)/C=C/c1c(CCNC)cc3c(c1OC)OCO3)OCO2`, the survivor count (dose: 300.0 mg/kg/injection, schedule: Q01DX001 (ip), vehicle: carboxymethylcellulose (CMC)) is reported as 5 of 6.
`CC(=O)N/N=C/c1ccc([N+](=O)[O-])s1` was tested, and the survivor count [5] was 1 of 6 and the survivor count [6] was 5 of 6.
For `CCCCNC(=O)NNC(=O)CCCC(=O)NNC(=O)NCCCC`, the survivor count [3] was 0 of 4.
In the case of `O=C(NCCCl)NC1CS(=O)(=O)CS(=O)(=O)C1`, the survivor count (dose: 150.0 mg/kg/injection, schedule: Q01DX001 (ip), vehicle: other) is reported as 2 of 6 and the survivor count (dose: 300.0 mg/kg/injection, schedule: Q01DX001 (ip), vehicle: other) is reported as 0 of 6.
`CCOc1ccc(NC2=C(OC)C(=O)C(Nc3ccc(OCC)cc3)=C(OC)C2=O)cc1` was tested, and the survivor count [7] was 4 of 4 and the survivor count (dose: 200.0 mg/kg/injection, schedule: Q01DX001 (ip), vehicle: carboxymethylcellulose (CMC)) was 4 of 4.
`S=c1[nH]cc2cnccn12` was tested, and the survivor count [4] was 0 of 6.
For `CCOc1cc(/C=N\Nc2nnc(C)n2N)c(C)cc1N(CCCl)CCCl`, the survivor count (dose: 30.0 mg/kg/injection, schedule: Q01DX015 (ip), vehicle: carboxymethylcellulose (CMC)) was 5 of 6, the T/C (dose: 44.0 mg/kg/injection, schedule: Q01DX001 (ip), vehicle: carboxymethylcellulose (CMC)) was 129 % of control and the survivor count (dose: 50.0 mg/kg/injection, schedule: Q01DX015 (ip), vehicle: carboxymethylcellulose (CMC)) was 6 of 6. For the same compound, the T/C [7] was 142 % of control and the survivor count [1] was 4 of 4.
For `Cc1ccc(NC(=O)Oc2cccnc2)cc1NC(=O)Oc1cccnc1`, the survivor count [8] was 4 of 6.
For `O=C(O)c1cccc(CCc2ccccc2)c1`, the survivor count (dose: 400.0 mg/kg/injection, schedule: Q01DX001 (ip), vehicle: Klucel (hydroxypropylcellulose) (HPC)) was 1 of 6.
For `CC1CN1P(=O)(N1CCCCC1)N1CC1C` (configuration not stated), the T/C (dose: 25.0 mg/kg/injection, schedule: Q01DX Z (ip), vehicle: saline) was 132 % of control, the T/C (dose: 57.0 mg/kg/injection, schedule: Q01DX Z (ip), vehicle: carboxymethylcellulose (CMC)) was 133 % of control and the survivor count (dose: 65.0 mg/kg/injection, schedule: Q01DX Z (ip), vehicle: carboxymethylcellulose (CMC)) was 6 of 6. The survivor count (dose: 100.0 mg/kg/injection, schedule: Q01DX Z (ip), vehicle: carboxymethylcellulose (CMC)) was 6 of 6, the survivor count (dose: 150.0 mg/kg/injection, schedule: Q01DX Z (ip), vehicle: carboxymethylcellulose (CMC)) was 5 of 6 and the survivor count (dose: 192.0 mg/kg/injection, schedule: Q01DX Z (ip), vehicle: saline) was 5 of 6. The survivor count (dose: 384.0 mg/kg/injection, schedule: Q01DX Z (ip), vehicle: saline) was 2 of 6 and the survivor count (dose: 768.0 mg/kg/injection, schedule: Q01DX Z (ip), vehicle: saline) was 0 of 6.
For `CSc1ccccc1NC(=O)NCCCl`, the survivor count [9] was 6 of 6.
`Cc1ccc2c(c1)CN(Cc1ccccc1)CO2` was tested, and the survivor count (dose: 100.0 mg/kg/injection, schedule: Q04DX003 (ip), vehicle: Klucel (hydroxypropylcellulose) (HPC)) was 0 of 6.
In the case of `CCC(CC)COCCCN`, the survivor count (dose: 100.0 mg/kg/injection, schedule: Q04DX003 (ip), vehicle: saline with Tween-80) is reported as 0 of 6, the survivor count [5] is reported as 0 of 6 and the survivor count [6] is reported as 0 of 6.
`COC(=O)C1(C)COP(=O)(O)OC1` (configuration not stated) was tested, and the survivor count [3] was 1 of 4.
In the case of `Nc1cccc2cccc([N+](=O)[O-])c12`, the survivor count [9] is reported as 3 of 6.
With `Cc1ccc(S(=O)(=O)[N-][n+]2ccccc2)cc1` the survivor count [8] was 1 of 6.
With `C=C(Br)CNC(=O)OCCCC` the survivor count (dose: 400.0 mg/kg/injection, schedule: Q04DX003 (ip), vehicle: saline) was 6 of 6.
With `CC(O)(Cc1ccccn1)Cc1ccccn1` the survivor count (dose: 500.0 mg/kg/injection, schedule: Q01DX Z (ip), vehicle: saline) was 0 of 6.
For `C=CC1(C)CCC2C(=CCC3C2(C)CC(O)C(O)C3(C)COC2OC(CO)C(O)C(O)C2O)C1` (configuration not stated), the survivor count (dose: 150.0 mg/kg/injection, schedule: Q01DX001 (ip), vehicle: saline) was 2 of 6 and the survivor count (dose: 300.0 mg/kg/injection, schedule: Q01DX001 (ip), vehicle: saline) was 0 of 6.
`CC(=O)OCC1OC(n2cc(C(F)(F)F)c(=O)[nH]c2=O)CC1OC(C)=O` (configuration not stated) was tested, and the T/C (dose: 150.0 mg/kg/injection, schedule: Q01DX Z (oral), vehicle: saline) was 144 % of control, the T/C (dose: 320.0 mg/kg/injection, schedule: Q01DX009 (oral), vehicle: saline) was 132 % of control and the T/C (dose: 320.0 mg/kg/injection, schedule: Q01DX011 (ip), vehicle: saline) was 147 % of control. The T/C (dose: 320.0 mg/kg/injection, schedule: Q01DX Z (ip), vehicle: saline) was 130 % of control, the T/C (dose: 600.0 mg/kg/injection, schedule: Q01DX011 (oral), vehicle: saline) was 130 % of control and the T/C (dose: 640.0 mg/kg/injection, schedule: Q01DX009 (oral), vehicle: saline) was 136 % of control.
`c1cc[c]([Sn]([O]B([O][Sn]([c]2ccccc2)([c]2ccccc2)[c]2ccccc2)[O][Sn]([c]2ccccc2)([c]2ccccc2)[c]2ccccc2)([c]2ccccc2)[c]2ccccc2)cc1` was tested, and the survivor count (dose: 100.0 mg/kg/injection, schedule: Q04DX002 (ip), vehicle: saline with Tween-80) was 0 of 3, the survivor count (dose: 200.0 mg/kg/injection, schedule: Q04DX002 (ip), vehicle: saline with Tween-80) was 0 of 3 and the survivor count (dose: 400.0 mg/kg/injection, schedule: Q04DX002 (ip), vehicle: saline with Tween-80) was 0 of 3.
With `CCOP(=O)(NCCCOC)OCC` the survivor count (dose: 6.25 mg/kg/injection, schedule: Q04DX003 (ip), vehicle: saline) was 2 of 6, the survivor count (dose: 12.5 mg/kg/injection, schedule: Q04DX003 (ip), vehicle: saline) was 0 of 6 and the survivor count (dose: 25.0 mg/kg/injection, schedule: Q01DX001 (ip), vehicle: acetone) was 3 of 6. The survivor count (dose: 35.0 mg/kg/injection, schedule: Q01DX009 (ip), vehicle: acetone) was 3 of 6, the survivor count (dose: 50.0 mg/kg/injection, schedule: Q01DX001 (ip), vehicle: acetone) was 0 of 6 and the survivor count (dose: 100.0 mg/kg/injection, schedule: Q01DX001 (ip), vehicle: acetone) was 0 of 6. For the same compound, the survivor count (dose: 200.0 mg/kg/injection, schedule: Q01DX001 (ip), vehicle: acetone) was 0 of 6 and the survivor count (dose: 400.0 mg/kg/injection, schedule: Q01DX001 (ip), vehicle: acetone) was 0 of 6.
`CC1=CC(C)(C)NC(=S)N1CCO` was tested, and the survivor count (dose: 49.0 mg/kg/injection, schedule: Q01DX Z (ip), vehicle: methylcellulose (MC)) was 5 of 6, the survivor count (dose: 112.0 mg/kg/injection, schedule: Q01DX Z (ip), vehicle: methylcellulose (MC)) was 4 of 6 and the survivor count (dose: 168.0 mg/kg/injection, schedule: Q01DX Z (ip), vehicle: methylcellulose (MC)) was 3 of 6. The survivor count [2] was 1 of 3.

From PubChem BioAssay AID248 (DTP/NCI, 2004)
